Earlier results, collected in patent publication US20210332014A1, “CABOZANTINIB MALATE CRYSTAL FORM, PREPARATION METHOD AND USE THEREOF” (Crystal Pharmaceutical (Suzhou) Co., Ltd., priority 2018, published 2021).
At least one structure is not confirmed: it was looked up by name or label, or the drawing left a doubt.

Conditions: cited from earlier work

Structure (SMILES): COc1cc2nccc(Oc3ccc(NC(=O)C4(C(=O)Nc5ccc(F)cc5)CC4)cc3)c2cc1OC [Cabozantinib, cabozantinib]
- BCS class: BCS class II
